Laboratory results: article PMC9596428
No constants are given. Whether binding was seen depends on the method and setting. Binding seen in cells or lysates may run through a third protein. Some binding calls cover weakened binding; strength is not graded here.

Protein sequences, listed by entry. Tags and fused reporters are not part of them. Lines headed by an entry give the natural chain unless they say otherwise; changes in a name come on top.
UniProt P11798: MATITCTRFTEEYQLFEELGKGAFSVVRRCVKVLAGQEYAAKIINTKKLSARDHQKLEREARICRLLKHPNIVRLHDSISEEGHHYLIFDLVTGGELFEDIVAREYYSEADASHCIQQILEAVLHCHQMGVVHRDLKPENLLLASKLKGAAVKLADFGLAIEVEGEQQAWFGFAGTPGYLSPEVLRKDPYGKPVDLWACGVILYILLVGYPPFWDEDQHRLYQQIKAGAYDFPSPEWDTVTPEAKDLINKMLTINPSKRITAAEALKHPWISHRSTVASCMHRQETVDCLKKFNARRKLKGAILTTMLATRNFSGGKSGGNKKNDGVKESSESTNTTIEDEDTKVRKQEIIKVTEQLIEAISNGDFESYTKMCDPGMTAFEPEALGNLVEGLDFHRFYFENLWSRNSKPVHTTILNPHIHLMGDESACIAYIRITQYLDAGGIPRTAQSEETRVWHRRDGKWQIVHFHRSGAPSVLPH

What was measured:
[1] = biological target: mVenus-tagged CaMKIIα I205K mutant holoenzyme (mouse) (UniProt P11798); assay: FRET or BRET; homo-FRET between mVenus tags on catalytic domains of the holoenzyme (steady-state anisotropy of in vitro binary-FRET), clarified HEK homogenate, room temperature, before and after activation with calcium-calmodulin
[2] = biological target: mVenus-tagged CaMKIIα K42R mutant holoenzyme (mouse) (UniProt P11798); assay: as above

Substance | binding [1] | binding [2]
mVenus-tagged CaMKIIα I205K mutant holoenzyme (from UniProt P11798-1 1-478) | binds | –
mVenus-tagged CaMKIIα K42R mutant holoenzyme (from UniProt P11798-1 1-478) | – | binds
